Assay [1] addresses T1, PRE1-YFP (Arabidopsis thaliana) (UniProt Q9FLE9).
T1 sequence: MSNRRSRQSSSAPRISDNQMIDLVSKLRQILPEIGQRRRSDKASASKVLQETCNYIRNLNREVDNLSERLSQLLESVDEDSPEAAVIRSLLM
Kind of assay: co-IP; extracts of ten-day-old transgenic Arabidopsis; GFP-Trap beads on PRE1-YFP; immunoblot with anti-Myc and anti-YFP; 20 mM HEPES-KOH pH 7.5, 40 mM KCl, 1 mM EDTA, 0.5% Triton X-100. In general terms: In western blotting, separated proteins are transferred to a membrane and probed.

Assay [2] has as its target T2, BD-IBH1 (ILI1 BINDING bHLH PROTEIN1 fused to GAL4BD) (Arabidopsis thaliana) (UniProt Q9SKX1).
T2 sequence: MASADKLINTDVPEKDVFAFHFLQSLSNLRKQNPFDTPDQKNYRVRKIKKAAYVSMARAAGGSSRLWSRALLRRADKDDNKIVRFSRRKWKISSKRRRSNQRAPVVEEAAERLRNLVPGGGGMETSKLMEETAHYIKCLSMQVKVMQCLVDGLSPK
Kind of assay: two-hybrid; yeast three-hybrid: GAL4BD-IBH1 and PRE1 or mutant (pMet25) from pBridge, GAL4AD-HBI1 from pGCADT7, AH109; growth on -Trp/-Leu/-Met/-His SD medium.

Another assay has as its target T3, GST-IBH1 (Arabidopsis thaliana, UniProt Q9SKX1 1-156).
T3 construct: also called glutathione S-transferase (GST)-IBH1; source: bacteria, purified on glutathione beads; not shown: GST, N-terminal, kept
T3 sequence (looked up): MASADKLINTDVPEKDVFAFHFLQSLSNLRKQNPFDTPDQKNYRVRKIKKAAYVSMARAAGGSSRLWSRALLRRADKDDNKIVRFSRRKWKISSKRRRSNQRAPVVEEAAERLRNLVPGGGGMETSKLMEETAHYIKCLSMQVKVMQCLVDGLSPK
Kind of assay: pull-down; competition: GST-IBH1 on glutathione beads with MBP-HBI1 and MBP, MBP-PRE1, MBP-PRE1^S67A or MBP-PRE1^S67E; same buffers; anti-MBP immunoblot; both purified.

Assay [3] deals with T2, BD-IBH1 (ILI1 BINDING bHLH PROTEIN1 fused to GAL4BD) (Arabidopsis thaliana). Put plainly: two-hybrid; yeast AH109; liquid β-galactosidase activity assay with ONPG, measured by spectrophotometer; three biological replicates.
Assay [4] shares this target. Kind of assay: two-hybrid; yeast AH109; GAL4BD fusions of IBH1/AIF1/PAR2/OsIBH1 with GAL4AD fusions of PRE1, PRE2, ILI1 and mutants; growth on SD (-Trp-Leu-His) with different concentrations of 3-aminotriazol, 3 days, 30 °C.
In assay [5] the target is T4, IBH1-cYFP (Arabidopsis thaliana) (UniProt Q9SKX1).
T4 sequence: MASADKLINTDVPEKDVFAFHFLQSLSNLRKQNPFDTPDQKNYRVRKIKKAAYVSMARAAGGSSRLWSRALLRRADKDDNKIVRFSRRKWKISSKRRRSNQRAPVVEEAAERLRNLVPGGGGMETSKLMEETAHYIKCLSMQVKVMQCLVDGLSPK
Kind of assay: split reporter; BiFC: IBH1-cYFP with PRE-nYFP fusions in tobacco leaves, at least 36 h at 22 °C in darkness, confocal microscopy.

Assay [6] addresses T5, BD-PAR2 (Arabidopsis thaliana) (UniProt Q9LXR7).
T5 sequence: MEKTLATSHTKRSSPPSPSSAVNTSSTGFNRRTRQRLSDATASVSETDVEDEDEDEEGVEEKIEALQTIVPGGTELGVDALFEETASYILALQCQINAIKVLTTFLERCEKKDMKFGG
Put plainly: two-hybrid; yeast AH109; GAL4BD fusions of IBH1/AIF1/PAR2/OsIBH1 with GAL4AD fusions of PRE1, PRE2, ILI1 and mutants; growth on SD (-Trp-Leu-His) with different concentrations of 3-aminotriazol, 3 days, 30 °C.

The target in assay [7] is T6, IBH1 in pBiFCt-2in1 (rBiFC fusion) (Arabidopsis thaliana) (UniProt Q9SKX1).
T6 sequence: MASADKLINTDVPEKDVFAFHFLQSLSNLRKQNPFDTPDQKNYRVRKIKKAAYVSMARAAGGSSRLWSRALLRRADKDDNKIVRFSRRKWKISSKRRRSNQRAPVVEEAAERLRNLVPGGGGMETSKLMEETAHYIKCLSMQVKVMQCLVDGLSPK
Put plainly: split reporter; ratiometric BiFC (pBiFCt-2in1-CC, RFP as internal marker) in tobacco leaf epidermal cells, 40 h at 22 °C, YFP/RFP ratio, n = 50 images.

The target in assay [8] is T7, BD-AIF1 (ATBS1-interacting factor 1) (Arabidopsis thaliana), Q9M9L6.
T7 chain: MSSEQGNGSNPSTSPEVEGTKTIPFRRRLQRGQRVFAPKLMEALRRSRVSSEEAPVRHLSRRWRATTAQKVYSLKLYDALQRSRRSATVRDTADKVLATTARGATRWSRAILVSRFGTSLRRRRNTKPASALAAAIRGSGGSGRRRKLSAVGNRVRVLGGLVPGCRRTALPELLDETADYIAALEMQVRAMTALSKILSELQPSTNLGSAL
Kind of assay: two-hybrid; yeast AH109; GAL4BD fusions of IBH1/AIF1/PAR2/OsIBH1 with GAL4AD fusions of PRE1, PRE2, ILI1 and mutants; growth on SD (-Trp-Leu-His) with different concentrations of 3-aminotriazol, 3 days, 30 °C. The following applies: remark: other sources report otherwise.

Results are given in words; binding and its absence hold for the method and conditions named. For some assays here: In cells and extracts the contact can be indirect. Some binding calls cover weakened binding; strength is not graded here. Tags and fused reporters may be left off the sequences shown.

Among the data in paper PMC7729563, “Phospho-Mutant Activity Assays Provide Evidence for the Negative Regulation of Transcriptional Regulator PRE1 by Phosphorylation” (International Journal of Molecular Sciences, 2020) are binding values, retold here.

B1: IBH1-Myc (protein, UniProt Q9SKX1 1-156)
chain: MASADKLINTDVPEKDVFAFHFLQSLSNLRKQNPFDTPDQKNYRVRKIKKAAYVSMARAAGGSSRLWSRALLRRADKDDNKIVRFSRRKWKISSKRRRSNQRAPVVEEAAERLRNLVPGGGGMETSKLMEETAHYIKCLSMQVKVMQCLVDGLSPK
Regarding B1, the binding entry in [1] is listed as “binds”.

B2: AD-HBI1 (protein, UniProt Q9ZPW3 1-337)
chain: MLEGLVSQESLSLNSMDMSVLERLKWVQQQQQQLQQVVSHSSNNSPELLQILQFHGSNNDELLESSFSQFQMLGSGFGPNYNMGFGPPHESISRTSSCHMEPVDTMEVLLKTGEETRAVALKNKRKPEVKTREEQKTEKKIKVEAETESSMKGKSNMGNTEASSDTSKETSKGASENQKLDYIHVRARRGQATDRHSLAERARREKISKKMKYLQDIVPGCNKVTGKAGMLDEIINYVQCLQRQVEFLSMKLAVLNPELELAVEDVSVKQFQAYFTNVVASKQSIMVDVPLFPLDQQGSLDLSAINPNQTTSIEAPSGSWETQSQSLYNTSSLGFHY
For B2, the binding result in assay [2] is recorded as “binds”.

B3: MBP-HBI1 (protein, UniProt Q9ZPW3 1-337)
chain: MLEGLVSQESLSLNSMDMSVLERLKWVQQQQQQLQQVVSHSSNNSPELLQILQFHGSNNDELLESSFSQFQMLGSGFGPNYNMGFGPPHESISRTSSCHMEPVDTMEVLLKTGEETRAVALKNKRKPEVKTREEQKTEKKIKVEAETESSMKGKSNMGNTEASSDTSKETSKGASENQKLDYIHVRARRGQATDRHSLAERARREKISKKMKYLQDIVPGCNKVTGKAGMLDEIINYVQCLQRQVEFLSMKLAVLNPELELAVEDVSVKQFQAYFTNVVASKQSIMVDVPLFPLDQQGSLDLSAINPNQTTSIEAPSGSWETQSQSLYNTSSLGFHY
For the molecule B3, the binding result with GST-IBH1 is given as “binds”.

B4: AD-PRE2 (protein, UniProt Q9LXG5 1-94)
chain: MSSSRRSRQASSSSRISDDQITDLISKLRQSIPEIRQNRRSNTVSASKVLQETCNYIRNLNKEADDLSDRLTQLLESIDPNSPQAAVIRSLING
For B4, the binding entry in assay [3] and in assay [4] was “binds” in each case.

B5: PRE2-nYFP (protein, UniProt Q9LXG5 1-94)
chain: MSSSRRSRQASSSSRISDDQITDLISKLRQSIPEIRQNRRSNTVSASKVLQETCNYIRNLNKEADDLSDRLTQLLESIDPNSPQAAVIRSLING
With B5, the binding entry in assay [5] was “binds”.

B6: PRE2^S68A-nYFP (protein, UniProt Q9LXG5 1-94)
chain: MSSSRRSRQASSSSRISDDQITDLISKLRQSIPEIRQNRRSNTVSASKVLQETCNYIRNLNKEADDLADRLTQLLESIDPNSPQAAVIRSLING
Turning to B6, the binding entry in [5] is listed as “binds”.

B7: AD-PRE2^S68A (protein, UniProt Q9LXG5 1-94)
chain: MSSSRRSRQASSSSRISDDQITDLISKLRQSIPEIRQNRRSNTVSASKVLQETCNYIRNLNKEADDLADRLTQLLESIDPNSPQAAVIRSLING
As for B7, the binding result in assay [3] and in assay [4] was “binds” in each case.

B8: AD-PRE1 (PACLOBUTRAZOL-…-1 fused to GAL4AD) (protein, UniProt Q9FLE9 1-92)
chain: MSNRRSRQSSSAPRISDNQMIDLVSKLRQILPEIGQRRRSDKASASKVLQETCNYIRNLNREVDNLSERLSQLLESVDEDSPEAAVIRSLLM
Take B8: the binding result in assay [3], in assay [6] and in [4] was “binds” throughout.

B9: AD-PRE1^S67E (protein, UniProt Q9FLE9 1-92)
chain: MSNRRSRQSSSAPRISDNQMIDLVSKLRQILPEIGQRRRSDKASASKVLQETCNYIRNLNREVDNLEERLSQLLESVDEDSPEAAVIRSLLM
With B9, in assay [6], the binding entry is recorded as “binds”.

B10: PRE1 in pBiFCt-2in1 (rBiFC fusion) (protein, UniProt Q9FLE9 1-92)
chain: MSNRRSRQSSSAPRISDNQMIDLVSKLRQILPEIGQRRRSDKASASKVLQETCNYIRNLNREVDNLSERLSQLLESVDEDSPEAAVIRSLLM
On to B10, for which the binding result in assay [7] is “binds”.

B11: AD-PRE1^S46A (protein, UniProt Q9FLE9 1-92)
chain: MSNRRSRQSSSAPRISDNQMIDLVSKLRQILPEIGQRRRSDKASAAKVLQETCNYIRNLNREVDNLSERLSQLLESVDEDSPEAAVIRSLLM
B11: the binding result in [3] and in assay [4] was “binds” in each case.

B12: AD-PRE1^S67A (protein, UniProt Q9FLE9 1-92)
chain: MSNRRSRQSSSAPRISDNQMIDLVSKLRQILPEIGQRRRSDKASASKVLQETCNYIRNLNREVDNLAERLSQLLESVDEDSPEAAVIRSLLM
As to B12, the binding entry in assay [3] and in assay [4] was “binds” throughout.

B13: AD-PRE1^S46E (protein, UniProt Q9FLE9 1-92)
chain: MSNRRSRQSSSAPRISDNQMIDLVSKLRQILPEIGQRRRSDKASAEKVLQETCNYIRNLNREVDNLSERLSQLLESVDEDSPEAAVIRSLLM
For B13, the binding entry in assay [3] and in assay [4] was “binds” in each case.

B14: AD-PRE1 (PACLOBUTRAZOL-…-1 fused to GAL4AD), Q9FLE9 1-92 (protein)
chain: MSNRRSRQSSSAPRISDNQMIDLVSKLRQILPEIGQRRRSDKASASKVLQETCNYIRNLNREVDNLSERLSQLLESVDEDSPEAAVIRSLLM
As for B14, the binding result in assay [8] is given as “binds”.

B15: PRE1^S67A as the third protein of the yeast three-hybrid assay (protein, UniProt Q9FLE9 1-92)
chain: MSNRRSRQSSSAPRISDNQMIDLVSKLRQILPEIGQRRRSDKASASKVLQETCNYIRNLNREVDNLAERLSQLLESVDEDSPEAAVIRSLLM
On to B15, for which the binding result in assay [2] was “binds”.

B16: PRE1 as the third protein of the yeast three-hybrid assay (protein, UniProt Q9FLE9 1-92)
chain: MSNRRSRQSSSAPRISDNQMIDLVSKLRQILPEIGQRRRSDKASASKVLQETCNYIRNLNREVDNLSERLSQLLESVDEDSPEAAVIRSLLM
Turning to B16, in [2], the binding entry was “binds”.
